No constants are given. Whether binding was seen depends on the method and setting. In cells and extracts the contact can be indirect. These calls come from enrichment with a bait or labelling near it, and not all partners need be listed. Where a sequence is shown, tags or fusion partners need not be part of it.
Biological target: T1, V5-tagged SCHAD (WT SCHAD-V5) (UniProt Q16836)
T1 sequence: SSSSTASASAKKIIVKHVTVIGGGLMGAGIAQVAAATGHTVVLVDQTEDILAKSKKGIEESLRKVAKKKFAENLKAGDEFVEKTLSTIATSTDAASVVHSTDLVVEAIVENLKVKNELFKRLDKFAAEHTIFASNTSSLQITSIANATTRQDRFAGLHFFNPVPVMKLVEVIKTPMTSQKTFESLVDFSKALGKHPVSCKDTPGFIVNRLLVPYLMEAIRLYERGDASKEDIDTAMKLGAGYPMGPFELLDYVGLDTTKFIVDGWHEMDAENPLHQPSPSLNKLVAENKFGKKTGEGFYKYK
Experiment: affinity purification with mass spectrometry; SCHADKO HEK293 cells transfected with WT SCHAD-V5 or Δ1–12 SCHAD-V5, crosslinked; immunoprecipitation with anti-V5, mouse IgG2a as negative control; LC-ESI-MS, two technical replicates

Chains of the proteins cited; added tags and fusions are not shown. Residues count along the entry.
UniProt P00367, residues 54-558: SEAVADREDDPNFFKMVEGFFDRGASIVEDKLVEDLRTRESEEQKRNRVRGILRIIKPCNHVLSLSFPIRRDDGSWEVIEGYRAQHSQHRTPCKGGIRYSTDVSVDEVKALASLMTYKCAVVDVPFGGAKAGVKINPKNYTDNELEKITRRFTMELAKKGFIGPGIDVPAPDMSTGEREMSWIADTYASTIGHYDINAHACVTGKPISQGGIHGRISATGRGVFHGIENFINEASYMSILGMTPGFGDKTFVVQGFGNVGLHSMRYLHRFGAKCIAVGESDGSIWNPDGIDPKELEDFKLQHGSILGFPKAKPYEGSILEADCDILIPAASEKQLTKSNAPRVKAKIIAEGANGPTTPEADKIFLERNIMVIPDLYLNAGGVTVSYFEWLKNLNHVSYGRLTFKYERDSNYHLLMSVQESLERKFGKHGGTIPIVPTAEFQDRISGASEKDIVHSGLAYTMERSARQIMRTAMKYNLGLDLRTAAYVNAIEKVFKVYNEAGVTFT

Molecule: endogenous glutamate dehydrogenase (GDH) of SCHADKO HEK293 cells (from UniProt P00367 54-558) (enzyme)
- binding: binds

B1: endogenous keratin 18 (K18) of SCHADKO HEK293 cells (protein, UniProt P05783 1-430)
chain: MSFTTRSTFSTNYRSLGSVQAPSYGARPVSSAASVYAGAGGSGSRISVSRSTSFRGGMGSGGLATGIAGGLAGMGGIQNEKETMQSLNDRLASYLDRVRSLETENRRLESKIREHLEKKGPQVRDWSHYFKIIEDLRAQIFANTVDNARIVLQIDNARLAADDFRVKYETELAMRQSVENDIHGLRKVIDDTNITRLQLETEIEALKEELLFMKKNHEEEVKGLQAQIASSGLTVEVDAPKSQDLAKIMADIRAQYDELARKNREELDKYWSQQIEESTTVVTTQSAEVGAAETTLTELRRTVQSLEIDLDSMRNLKASLENSLREVEARYALQMEQLNGILLHLESELAQTRAEGQRQAQEYEALLNIKVKLEAEIATYRRLLEDGEDFNLGDALDSSNSMQTIQKTTTRRIVDGKVVSETNDTKVLRH
- binding: binds
